Values quoted from earlier work in publication PMC11388056 (Clinical and Translational Science, 2024).

Tests used:
Conditions in all cases: in vitro, at clinically relevant concentrations; cited from earlier work
OATP1B3 = system: OATP1B3
[1] = system: organic cation transporter 2
OAT3 = system: OAT3
MATE2K = system: MATE2K
OATP1B1 = system: OATP1B1
MATE1 = system: MATE1
[2] = system: organic anion transporter [OAT]1

C=CC(=O)N1CC[C@H](n2nc(C#Cc3cc(OC)cc(OC)c3)c3c(N)ncnc32)C1 [futibatinib]
does not inhibit: inhibition of OATP1B3 (OATP1B3) | inhibition of organic cation transporter 2 [1] | inhibition of OAT3 (OAT3) | inhibition of MATE2K (MATE2K) | inhibition of OATP1B1 (OATP1B1) | inhibition of MATE1 (MATE1) | inhibition of OAT1 [2]
